Consider 2 substances from article PMC9931811.

Chains of the proteins cited; added tags and fusions are not shown.
UniProt Q676U5: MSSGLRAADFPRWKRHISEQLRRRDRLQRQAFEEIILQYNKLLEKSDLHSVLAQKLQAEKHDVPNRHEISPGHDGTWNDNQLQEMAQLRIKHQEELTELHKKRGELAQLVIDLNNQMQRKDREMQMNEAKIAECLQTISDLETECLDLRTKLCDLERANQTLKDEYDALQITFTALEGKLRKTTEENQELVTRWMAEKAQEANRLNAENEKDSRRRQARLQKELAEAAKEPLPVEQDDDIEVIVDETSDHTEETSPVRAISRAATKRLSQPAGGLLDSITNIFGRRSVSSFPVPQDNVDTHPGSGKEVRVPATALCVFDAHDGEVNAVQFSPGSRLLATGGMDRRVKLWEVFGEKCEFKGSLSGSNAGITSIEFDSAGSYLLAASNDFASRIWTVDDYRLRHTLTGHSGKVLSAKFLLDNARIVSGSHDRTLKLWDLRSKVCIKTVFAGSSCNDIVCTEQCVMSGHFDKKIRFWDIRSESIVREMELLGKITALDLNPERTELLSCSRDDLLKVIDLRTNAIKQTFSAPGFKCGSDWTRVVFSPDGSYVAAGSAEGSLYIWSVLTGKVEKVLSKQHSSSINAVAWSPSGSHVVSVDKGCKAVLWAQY
UniProt Q9HC29: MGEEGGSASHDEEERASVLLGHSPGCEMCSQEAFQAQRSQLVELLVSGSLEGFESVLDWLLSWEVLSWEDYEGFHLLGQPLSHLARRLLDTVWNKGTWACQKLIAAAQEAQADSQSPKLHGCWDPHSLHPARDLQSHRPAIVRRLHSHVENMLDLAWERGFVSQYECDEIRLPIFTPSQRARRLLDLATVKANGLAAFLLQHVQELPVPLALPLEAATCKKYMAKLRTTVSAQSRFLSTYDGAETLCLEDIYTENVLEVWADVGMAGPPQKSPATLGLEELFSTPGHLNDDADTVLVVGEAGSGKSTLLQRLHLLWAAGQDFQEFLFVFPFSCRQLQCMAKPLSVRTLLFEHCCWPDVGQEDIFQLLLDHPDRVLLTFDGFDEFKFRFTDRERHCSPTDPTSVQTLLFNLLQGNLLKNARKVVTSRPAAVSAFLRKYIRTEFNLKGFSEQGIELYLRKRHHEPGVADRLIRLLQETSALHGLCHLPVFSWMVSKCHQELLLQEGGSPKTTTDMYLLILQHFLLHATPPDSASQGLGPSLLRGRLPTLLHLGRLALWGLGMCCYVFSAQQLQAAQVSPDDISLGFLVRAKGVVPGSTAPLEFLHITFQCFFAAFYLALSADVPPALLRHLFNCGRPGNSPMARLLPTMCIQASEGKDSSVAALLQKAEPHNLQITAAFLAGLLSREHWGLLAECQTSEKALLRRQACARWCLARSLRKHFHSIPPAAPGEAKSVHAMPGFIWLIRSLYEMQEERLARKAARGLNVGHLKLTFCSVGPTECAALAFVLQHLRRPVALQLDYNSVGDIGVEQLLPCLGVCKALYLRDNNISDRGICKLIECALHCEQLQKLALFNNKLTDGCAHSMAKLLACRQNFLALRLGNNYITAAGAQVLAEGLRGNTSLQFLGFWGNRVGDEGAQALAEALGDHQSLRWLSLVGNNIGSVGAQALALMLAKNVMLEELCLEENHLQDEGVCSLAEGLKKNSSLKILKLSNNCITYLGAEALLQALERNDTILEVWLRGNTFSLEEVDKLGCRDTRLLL

Results are given in words; binding and its absence hold for the method and conditions named. In cells and extracts the contact can be indirect. Some entries that bind do so weakly or less than the wild type.

Assay [1] addresses P-ATG16L1 (phosphorylated ATG16L1) (human (endogenous in BIC-1 and OE33)) (UniProt Q676U5). The assay is described as follows: co-IP; RIPA lysates of BIC-1 and OE33 cells; NOD2 or ATG16L1 antibody (1 ug) overnight at 4 C, protein A agarose beads 4 h at 4 C, washed with modified RIPA buffer; Western blot; done in both directions. Background: In western blotting, separated proteins are transferred to a membrane and probed.

Assay [2] deals with Nucleotide binding oligomerization domain containing 2 (NOD2) (human (in BIC-1 and OE33 cells)) (UniProt Q9HC29). The description is as above.

As for “Nucleotide binding oligomerization domain containing 2 (NOD2) (from UniProt Q9HC29 1-1040)”, the binding result in assay [1] is given as “binds”. As to “P-ATG16L1 (phosphorylated ATG16L1) (from UniProt Q676U5 1-607)”, the binding result in assay [2] is reported as “binds”.
